The test system of this assay is P388 leukemia ip, CD2F1 mice, survival T/C. The assay can be described thus: NCI In Vivo Anticancer Drug Screen. Data for tumor model P388 Leukemia (intraperitoneal) in CD2F1 (CDF1) mice. Conditions: T/C endpoint: median survival time, higher T/C = longer survival.
Setting [1] is: dose: 50.0 mg/kg/injection, schedule: Q04DX003 (ip), vehicle: saline with Tween-80.
[2] abbreviates: dose: 100.0 mg/kg/injection, schedule: Q01DX009 (ip), vehicle: saline with Tween-80.
[3] abbreviates: dose: 200.0 mg/kg/injection, schedule: Q01DX009 (ip), vehicle: saline with Tween-80.
Setting [4] is: dose: 50.0 mg/kg/injection, schedule: Q01DX009 (ip), vehicle: saline.
[5] abbreviates: dose: 100.0 mg/kg/injection, schedule: Q01DX009 (ip), vehicle: saline.
Where [6] appears, read: dose: 200.0 mg/kg/injection, schedule: Q01DX009 (ip), vehicle: saline.
Setting [7] is: dose: 400.0 mg/kg/injection, schedule: Q01DX009 (ip), vehicle: saline.
Where [8] appears, read: dose: 600.0 mg/kg/injection, schedule: Q01DX009 (ip), vehicle: saline.
[9] abbreviates: dose: 100.0 mg/kg/injection, schedule: Q01DX005 (ip), vehicle: Klucel (hydroxypropylcellulose) (HPC).
Setting [10] is: dose: 200.0 mg/kg/injection, schedule: Q01DX005 (ip), vehicle: Klucel (hydroxypropylcellulose) (HPC).
The mark [11] stands for this setting: dose: 240.0 mg/kg/injection, schedule: Q01DX005 (ip), vehicle: saline with Tween-80.
[12] abbreviates: dose: 25.0 mg/kg/injection, schedule: Q01DX009 (ip), vehicle: saline with Tween-80.
[13] abbreviates: dose: 25.0 mg/kg/injection, schedule: Q01DX005 (ip), vehicle: Klucel (hydroxypropylcellulose) (HPC).
[14] abbreviates: dose: 50.0 mg/kg/injection, schedule: Q01DX005 (ip), vehicle: Klucel (hydroxypropylcellulose) (HPC).
Setting [15] is: dose: 240.0 mg/kg/injection, schedule: Q01DX005 (ip), vehicle: Klucel (hydroxypropylcellulose) (HPC).
[16] abbreviates: dose: 50.0 mg/kg/injection, schedule: Q01DX009 (ip), vehicle: saline with Tween-80.

T/C and survivor count data for 29 compounds are collected here from PubChem BioAssay AID330 (DTP/NCI, 2004).

The list does not hold the whole screen: it is rich in T/C values a quarter to a half above the control, in often repeated tests (any T/C) and in doses without a T/C. Further doses and runs are listed elsewhere. T/C gives the treated animals as a percentage of the vehicle group. Some entries give survivors of the animals treated and no T/C: the source holds a T/C of zero for them, seemingly a mark for toxic or unscored doses. Some doses without a T/C left all or most animals alive at the check, yet need not have been tolerated: the source hardly ever lists a survival T/C far under the control, and the zero likely stands for such cases as well. Survivors were counted at the toxicity check, usually on the fifth day, unless a day is given; later deaths do not show. Schedules are NCI's codes, taken here to give the interval after Q, in days (D) or hours (H), and the number of doses after X. Counts like (3×) give the number of equal values in this list. Where survival is the endpoint, the PubChem record calls one and a half times the control and up active, and a quarter to a half above the control has no call in these data; cut-offs in other NCI protocols can differ. Some T/C values carry the count of animals alive at the toxicity check (mostly the fifth day); without a count, all were alive then. Some doses were run more than once; their values stand side by side, smallest first.

Turning to `CCN(CC)CC(C)Nc1ccc([N+](=O)[O-])c2sc3ccccc3c(=O)c12` (stereo not given), the T/C is 126 % of control (dose: 12.5 mg/kg/injection, schedule: Q01DX009 (ip), vehicle: saline); 147 % of control (dose: 25.0 mg/kg/injection, schedule: Q01DX009 (ip), vehicle: saline); 130 % of control under setting [1]. The survivor count is 6 of 6 under setting [2]; 6 of 6 under setting [3]; 6 of 6 (dose: 300.0 mg/kg/injection, schedule: Q04DX003 (ip), vehicle: saline with Tween-80).

In the case of `Cc1ccc(NCCCN2CCN(CCCNc3ccc(C)c4sc5ccccc5c(=O)c34)CC2)c2c(=O)c3ccccc3sc12`, the survivor count reads like this: (dose: 6.25 mg/kg/injection, schedule: Q01DX005 (ip), vehicle: saline with Tween-80) 6 of 6; (dose: 8.0 mg/kg/injection, schedule: Q01DX005 (ip), vehicle: saline with Tween-80) 6 of 6; (dose: 13.0 mg/kg/injection, schedule: Q01DX005 (ip), vehicle: saline with Tween-80) 6 of 6; (dose: 26.0 mg/kg/injection, schedule: Q01DX005 (ip), vehicle: saline with Tween-80) 6 of 6; (dose: 52.0 mg/kg/injection, schedule: Q01DX005 (ip), vehicle: saline with Tween-80) 6 of 6.

Take `C[n+]1c(-c2ccccc2)c2cc(N)ccc2c2ccc(N)cc21`: the T/C runs as follows: (dose: 6.25 mg/kg/injection, schedule: Q04DX003 (ip), vehicle: saline with Tween-80) 128 % of control; (dose: 12.5 mg/kg/injection, schedule: Q04DX003 (ip), vehicle: saline with Tween-80) 130 and 137 % of control; (dose: 25.0 mg/kg/injection, schedule: Q04DX003 (ip), vehicle: saline with Tween-80) 130 % of control. The survivor count under setting [1] is 5 of 6.

With `Cc1ccc(O)c(O)c1`, the T/C was 96 [5 of 6 alive], 100, 101, 104, 106, 120 % of control under setting [4]; 96, 99, 108, 109, 111, 115 % of control [4 of 6 alive] under setting [5]; 95 [4 of 6 alive], 98 [5 of 6 alive], 108, 126 [5 of 6 alive], 128, 133 % of control under setting [6]. Moreover, the survivor count is, setting by setting: under setting [7], 0 of 6 (2×); under setting [8], 0 of 6.

As to `Cc1cccc(C)c1-n1c(C)nc2[nH]cc(C)c2c1=N`, the survivor count runs as follows: under setting [9], 0 of 6; under setting [10], 0 of 6.

For the compound `COC(=O)C1CCC(/C(C#N)=C2/CCC(C(=O)OC)[N-]2)=N1.COC(=O)C1CCC(/C(C#N)=C2/CCC(C(=O)OC)[N-]2)=N1.[Cu+2]` (stereo not given), the survivor count under setting [11] is on record as 0 of 6.

On to `COC(=O)C1=C(C)NC(=O)NC1c1ccc(N(CCCl)CCCl)c(OC)c1` (stereo not given), for which the survivor count under setting [12] is listed as 1 of 6.

As for `CC(C)c1cccc(O)c1O`, the survivor count runs as follows: under setting [6], 0 of 6; under setting [7], 0 of 6; under setting [8], 0 of 6.

With `COc1cc2c(c(OC)c1OC)-c1ccc(SC)c(=O)cc1[C@@H](NC1OCC(O)C(O)C1O)CC2` (stereo not given in full), the T/C is, setting by setting: (dose: 12.0 mg/kg/injection, schedule: Q01DX009 (ip), vehicle: other) 145 % of control; (dose: 36.0 mg/kg/injection, schedule: Q01DX009 (ip), vehicle: other) 148 % of control.

In the case of `CC1=CC(=NN=c2cc(C)n([O-])c(C)c2)C=C(C)[N+]1=O`, the T/C is, setting by setting: under setting [4], 127 % of control; under setting [5], 131 % of control.

`CC1OC2CC(O)C1(O)C1=C2C(O)=C(C(N)=O)C(=N)C1=O` (stereo not given): for the setting “dose: 5.0 mg/kg/injection, schedule: Q01DX009 (ip), vehicle: other”, the survivor count was 6 of 6.

As for `O=c1ncccn1[C@@H]1O[C@H](CO)[C@H](O)C1O` (stereo not given in full), the T/C was 125 and 134 % of control under setting [6]; 137 % of control under setting [7]; 145 % of control under setting [8].

With `C1CCN(CN2CCCCC2)CC1`, the survivor count under setting [6] is 0 of 6.

For `COc1nc(COC(=O)NC(C)C)c(COC(=O)NC(C)C)n1C`, the T/C under setting [13] is 130 % of control, the T/C under setting [14] was 147 % of control and the T/C under setting [9] is 148 % of control.

Take `Cc1ccc(NS(=O)(=O)N2CCCCC2)cc1`: under “dose: 50.0 mg/kg/injection, schedule: Q01DX009 (ip), vehicle: Klucel (hydroxypropylcellulose) (HPC)”, the T/C is 125 % of control.

Take `O=P(c1ccccc1)(c1ccccc1)c1ccccc1.O=P(c1ccccc1)(c1ccccc1)c1ccccc1.O=P(c1ccccc1)(c1ccccc1)c1ccccc1.O=P(c1ccccc1)(c1ccccc1)c1ccccc1.[Cr+3].[O-][Cl+3]([O-])([O-])O`: for the setting “dose: 400.0 mg/kg/injection, schedule: Q04DX003 (ip), vehicle: saline + Tween-80 + alcohol”, the survivor count is on record as 0 of 6.

For the compound `CC1=C(C)C2C(=O)NC(=O)NC12` (stereo not given), where the note is “dose: 400.0 mg/kg/injection, schedule: Q01DX001 (ip), vehicle: Klucel (hydroxypropylcellulose) (HPC)”, the survivor count is 5 of 6.

For the compound `Cc1ccc(C)n1-c1ccsc1C(=O)NNC(=O)CCl`, the survivor count is, setting by setting: (dose: 60.0 mg/kg/injection, schedule: Q01DX005 (ip), vehicle: Klucel (hydroxypropylcellulose) (HPC)) 5 of 6; (dose: 120.0 mg/kg/injection, schedule: Q01DX005 (ip), vehicle: Klucel (hydroxypropylcellulose) (HPC)) 0 of 6; under setting [15], 0 of 6.

As for `CCC[C@H]1N=C(OCC)N[C@@H]1CCC`, the survivor count runs as follows: under setting [13], 3 of 6; under setting [14], 0 of 6; under setting [9], 0 of 6; under setting [10], 0 of 6.

On to `O=S(=O)(c1ccc2ccccc2c1)N(CCCCCN(S(=O)(=O)c1ccc2ccccc2c1)S(=O)(=O)c1ccc2ccccc2c1)S(=O)(=O)c1ccc2ccccc2c1`, for which the survivor count under setting [11] is 6 of 6.

For the compound `O=S(=O)(c1ccccc1)N(Cl)Cl`, the T/C under setting [12] is recorded as 91, 99, 102, 123 % of control. Also, the survivor count is 4 of 6 under setting [16], 3 of 6 under setting [2] and 0 of 6 under setting [3].

With `Cc1cc(N)n2c(nc3ccccc32)c1C#N`, the survivor count (dose: 120.0 mg/kg/injection, schedule: Q01DX005 (ip), vehicle: saline with Tween-80) is on record as 2 of 6 and the survivor count under setting [11] was 1 of 6.

For `CC(=O)OC(C)C1C2=C(C(=O)CC1(C)O)C(=O)c1c(ccc(-c3ccc4c(c3O)C(=O)C3=C(C4=O)C(C(C)OC(C)=O)C(C)(O)CC3=O)c1O)C2=O` (stereo not given), the T/C (dose: 1.56 mg/kg/injection, schedule: Q01DX009 (ip), vehicle: saline with Tween-80) is 144 % of control. Besides, the survivor count (dose: 12.5 mg/kg/injection, schedule: Q01DX009 (ip), vehicle: saline with Tween-80) is on record as 6 of 6.

With `CN(C)CCNC(=Cc1ccc2ccccc2[n+]1C)NCCN(C)C`, where the note is “dose: 120.0 mg/kg/injection, schedule: Q01DX005 (ip), vehicle: saline”, the survivor count is given as 4 of 6.

Consider `O=C(CCl)NC(=O)CCl`, for which the survivor count by setting is: under setting [16], 5 of 6; under setting [2], 1 of 6.

Consider `N=C(N)c1ccc(N=Nc2cc(/C=C/c3ccccc3)ccc2O)cc1`, for which, under setting [10], the survivor count was 0 of 6.

Consider `CC1=C(C)Cn2c(=O)c3cc4ccccc4cc3c(=O)n2C1`, for which the survivor count (dose: 200.0 mg/kg/injection, schedule: Q01DX009 (ip), vehicle: Klucel (hydroxypropylcellulose) (HPC)) is 6 of 6.

Take `CCOC(=O)C(C(=O)OCC)=S1c2ccccc2Sc2ccccc21`: the survivor count under setting [15] is reported as 5 of 6.

On to `Cc1ccc(C(=O)NNC(O)C(F)(F)F)cc1` (stereo not given), for which the survivor count (dose: 400.0 mg/kg/injection, schedule: Q04DX003 (ip), vehicle: Klucel (hydroxypropylcellulose) (HPC)) was 5 of 6.
